In paper PMC7641318 one finds binding data, which are given here for one substance.

The assay has as its target Histidine-tagged hADAR2-R2D E488Q for in vitro assays (human) (UniProt P78563). The assay can be described thus: SEC; analytical gel filtration, Superdex increase 5/150 GL; 25 μl of 10 μM protein without RNA; 20 mM Tris-HCl pH 8.0, 200 mM NaCl, 5% glycerol, 1 mM BME; both purified. Background: In gel filtration, larger molecules generally elute earlier.

No constants are given. Whether binding was seen depends on the method and setting.

Take “Histidine-tagged hADAR2-R2D E488Q for in vitro assays (from UniProt P78563-2 214-701) (domain or fragment)”: the binding result is reported as “no binding (condition: without RNA (10 μM protein))”.
